Data taken from paper PMC4636321.
No constants are given. Whether binding was seen depends on the method and setting. In cells and extracts the contact can be indirect. Some results given as binding are weak or reduced against the parent protein; the word gives no strength. Tags and fused reporters may be left off the sequences shown.

Chains of the proteins cited; added tags and fusions are not shown.
UniProt Q13257: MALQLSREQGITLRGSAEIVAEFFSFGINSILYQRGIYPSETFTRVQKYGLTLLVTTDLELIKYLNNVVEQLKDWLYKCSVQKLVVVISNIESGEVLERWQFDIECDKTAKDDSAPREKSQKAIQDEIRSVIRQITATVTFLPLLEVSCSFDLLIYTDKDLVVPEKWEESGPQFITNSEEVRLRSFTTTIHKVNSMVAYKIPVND

Key:
Test in all cases: co-IP; FLAG-tagged p31^comet (wild type or deletion mutant) and Myc-tagged Mad2 co-transfected; NP-40 lysis buffer; lysates immunoprecipitated with anti-FLAG antibody (M2), immunoprecipitates probed with anti-Myc antibody
[1] = target: T1, FLAG-tagged p31ΔN54 (human) (UniProt Q15013)
T1 sequence: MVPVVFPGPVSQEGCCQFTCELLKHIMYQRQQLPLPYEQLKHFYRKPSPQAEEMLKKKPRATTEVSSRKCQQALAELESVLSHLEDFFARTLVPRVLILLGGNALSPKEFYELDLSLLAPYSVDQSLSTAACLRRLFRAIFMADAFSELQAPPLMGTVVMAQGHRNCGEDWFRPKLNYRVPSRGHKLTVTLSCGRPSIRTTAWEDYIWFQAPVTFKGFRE

[2] = target: T2, FLAG-tagged p31ΔC30 (human) (UniProt Q15013)
T2 sequence: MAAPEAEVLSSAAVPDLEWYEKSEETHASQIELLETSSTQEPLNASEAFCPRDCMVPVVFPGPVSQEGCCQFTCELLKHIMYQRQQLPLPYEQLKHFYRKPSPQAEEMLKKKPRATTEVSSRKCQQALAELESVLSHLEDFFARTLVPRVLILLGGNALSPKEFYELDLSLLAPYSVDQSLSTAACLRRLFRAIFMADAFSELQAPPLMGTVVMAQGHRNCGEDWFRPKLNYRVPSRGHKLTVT

[3] = target: T3, FLAG-tagged wild-type p31^comet (human) (UniProt Q15013)
T3 sequence: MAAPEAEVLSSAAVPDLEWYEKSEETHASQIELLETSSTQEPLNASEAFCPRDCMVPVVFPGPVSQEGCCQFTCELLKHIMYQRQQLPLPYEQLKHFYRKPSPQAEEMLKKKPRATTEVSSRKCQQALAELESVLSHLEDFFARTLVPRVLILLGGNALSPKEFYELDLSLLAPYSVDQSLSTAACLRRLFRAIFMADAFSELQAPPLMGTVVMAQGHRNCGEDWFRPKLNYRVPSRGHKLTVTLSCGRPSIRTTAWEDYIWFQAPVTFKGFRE

binding [1]: binds
binding [2]: no binding
binding [3]: binds
Substance: Myc-tagged Mad2 (from UniProt Q13257 1-205)
